According to PubChem BioAssay AID2517 (National Center for Advancing Translational Sciences (NCATS), 2010):
The campaign covered roughly 350,000 compounds. About 1,200 (0.34%) were called active. Inconclusive means that the source gave no clear call. Such entries were picked first, then a sample of the others. Calls come from the whole dose curve; as a rule, active = well fitted inhibition curve with a large enough effect; inconclusive = small, poorly fitted or top-dose-only effect; inactive = no such curve, though single readings can be large or run the other way. Potencies of inconclusive entries are doubtful fits and often do not repeat.

Chains of the proteins cited; added tags and fusions are not shown.
UniProt P27695, whole entry, looked up: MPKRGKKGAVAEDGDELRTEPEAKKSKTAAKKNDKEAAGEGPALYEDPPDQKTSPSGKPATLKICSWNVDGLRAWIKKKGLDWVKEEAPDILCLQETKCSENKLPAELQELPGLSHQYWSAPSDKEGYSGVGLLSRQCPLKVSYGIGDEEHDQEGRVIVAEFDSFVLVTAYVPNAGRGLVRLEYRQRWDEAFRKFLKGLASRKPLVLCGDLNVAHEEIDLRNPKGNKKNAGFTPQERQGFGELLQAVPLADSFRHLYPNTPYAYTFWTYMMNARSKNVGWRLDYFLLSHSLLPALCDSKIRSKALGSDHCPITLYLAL

molecular target: DNA repair nuclease/redox regulator APEX1 (Homo sapiens) (UniProt P27695); assay: qHTS Assay for Inhibitors of the Human Apurinic/apyrimidinic Endonuclease 1 (APE1); details: recombinant APE1, TAMRA/BHQ-2 abasic DNA cleavage fluorescence; activity change, negative = inhibition: at 65.8 µM (top of the series); note: nearly all actives have a fitted effect of over 55% in size;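 for activity change, negative = inhibition: plate controls were vehicle for no effect and reference inhibitor for full effect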
How it was run: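 Endonuclease cleavage of a quenched abasic-site DNA duplex (50 nM) by APE1 (0.75 nM) was tracked by TAMRA dequenching. Compounds were preincubated with enzyme 15 min at room temperature; data normalized to buffer-only and DMSO wells plus NSC13755 control.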
Potency is the fitted concentration of half-maximal effect.

SMILES | Potency | activity change, negative = inhibition
CCCCOC(=O)c1ccc(NC(=O)c2ccccc2OC)cc1 | inconclusive: 8.91 µM [inhibitor, single point] | 
COc1ccc(CNc2ccccc2)cc1Br | inconclusive: 8.91 µM [inhibitor, single point] | 
C=C(C)C(=O)Nc1cccc(C2=NOC3(C2)C[C@H](C(N)=O)N(C(=O)/C=C/C)C3)c1 (some centres undefined) | inconclusive: 10 µM [inhibitor, partial curve] | 
C=CCC1(c2ccccc2)Oc2ccccc2-c2nc3cc(Cl)c(Cl)cc3nc21 (centres undefined) | inconclusive: 3.98 µM [inhibitor, single point] | 
O=C(NN1C(=O)/C(=C/c2ccc(O)c([N+](=O)[O-])c2)SC1=S)c1ccccc1Cl | inconclusive: 44.7 µM [inhibitor, single point] | 
CC(C)CCNC(=O)c1ccc2c(c1)N(C)C(=O)c1ccccc1S2 | inconclusive: 21.2 µM [inhibitor, single point] | 
Cn1c(=O)[nH]c(NC2CCCCC2)c(N=O)c1=O | inconclusive: 44.7 µM [inhibitor, single point] | 
COc1ccccc1N1CCN(CC2CN3C(=O)N(C)c4ccccc4C3=N2)CC1 (centres undefined) |  | inactive: -0.972%
CCOc1nc(-c2ccc(C)cc2)ccc1-c1noc(-c2cccnc2)n1 | inconclusive: 39.8 µM [inhibitor, single point] | 
O=c1cc(-c2cccc(O)c2)oc2c(O)c(O)ccc12 | inconclusive: 3.16 µM [inhibitor, full curve] | 
Cn1ncnc1SCc1cn2cccnc2n1 | inconclusive: 28.2 µM [inhibitor, single point] | 
CCc1cc(=O)[nH]c(-n2[nH]c(-c3ccccc3)cc2=O)n1 |  | inactive: 13.7%
C[C@H]1c2cccc(O)c2C(O)=C2C(=O)[C@]3(O)C(O)=C(C(N)=O)C(=O)[C@@H](N(C)C)[C@@H]3[C@@H](O)[C@@H]21 | inconclusive: 44.7 µM [inhibitor, single point] | 
COc1ccc(/C=N/NC(=O)CCn2cnc3ccccc32)cc1 | inconclusive: 3.55 µM [inhibitor, single point] | 
Nc1cccc(Nc2nc(OC(C(F)(F)F)C(F)(F)F)nc(OC(C(F)(F)F)C(F)(F)F)n2)c1 | inconclusive: 35.5 µM [inhibitor, partial curve] | 
COc1ccc(/C=N/NC(=O)c2ccc(O)cc2O)cc1CSc1ccccn1 |  | inactive: 0.725%
CCOC(=O)c1c(C)[nH]c(-c2csc(N)n2)c1C | inconclusive: 44.7 µM [inhibitor, single point] | 
CCN1CCN(Cc2coc3ccc(C)cc3c2=O)CC1 | inconclusive: 5.01 µM [inhibitor, single point] | 
COc1ccc(/C=C(\CC(=O)O)c2nc3ccccc3s2)cc1O |  | inactive: 23.3%
Cc1ccc(-c2[nH]ncc2/C=C(\C#N)C(=O)NC2CCCCC2)cc1 | inconclusive: 20 µM [inhibitor, single point] | 
O=C(O)c1ccccc1N/N=C/c1c(Sc2nnnn2-c2ccccc2)nc2ccccn2c1=O | active: 35.5 µM | 
CCCCC1=CC2=CC(=O)C(C)(OC(=O)CC)C(=O)C2=CN1C1CCCCC1 (centres undefined) | inactive | 

Shown as comma-separated lines: 3 of the compounds above.
SMILES,Potency,"activity change, negative = inhibition"
COc1ccc(CNc2ccccc2)cc1Br,"inconclusive: 8.91 µM [inhibitor, single point]",
O=C(NN1C(=O)/C(=C/c2ccc(O)c([N+](=O)[O-])c2)SC1=S)c1ccccc1Cl,"inconclusive: 44.7 µM [inhibitor, single point]",
C[C@H]1c2cccc(O)c2C(O)=C2C(=O)[C@]3(O)C(O)=C(C(N)=O)C(=O)[C@@H](N(C)C)[C@@H]3[C@@H](O)[C@@H]21,"inconclusive: 44.7 µM [inhibitor, single point]",

Further records follow:

SMILES | Potency | activity change, negative = inhibition
COc1ccc(S(=O)(=O)Nc2ccc3c(c2)C(=O)N([C@H](C)CO)C[C@H](C)[C@@H](CN(C)S(=O)(=O)c2ccccc2)O3)cc1 |  | inactive: 8.32%
Cc1ccc(C(=O)Nc2nc(C)c(C)s2)o1 | inconclusive: 31.6 µM [inhibitor, single point] | 
CCCCCCCCCCCCCCCCO | inconclusive: 20 µM [inhibitor, single point] | 
CC1=C(C(=O)N2CCN(C(=O)c3ccco3)CC2)C2(CCC(C)CC2)OC1=O (centres undefined) | inconclusive: 0.005 µM [inhibitor, full curve, poor fit] | 
Cc1cc(O)c(C(C)C)cc1N=Nc1ccccc1C(=O)O |  | inactive: -5.87%
CC1CN(S(=O)(=O)N2CCOCC2)CCN1S(=O)(=O)N1CCOCC1 (centres undefined) |  | inactive: 1.66%
Cn1c(COc2ccccc2)nc2ccccc21 | inconclusive: 5.97 µM [inhibitor, single point] | 
O=C1Nc2ccc([N+](=O)[O-])cc2C1=Nc1cccc(CO)c1 | inconclusive: 28.2 µM [inhibitor, single point] | 
CCC(c1nnnn1Cc1ccco1)N(Cc1cc2cc(OC)ccc2[nH]c1=O)C1CCCCC1 (centres undefined) | inconclusive: 1.41 µM [inhibitor, full curve, poor fit] | 
CCn1c(=O)cc(SCC(=O)N2CCN(c3ccccc3OC)CC2)c2ccccc21 | inconclusive: 39.8 µM [inhibitor, single point] | 
CCOc1ccc(S(=O)(=O)N2CCN(C(=S)NC3CC3)CC2)cc1 | inconclusive: 44.7 µM [inhibitor, single point] | 
CCOC(=O)CC1COCCN1C(=O)c1ccc2oc(Cc3ccccc3)nc2c1 (centres undefined) |  | inactive: 5.5%
COc1cc(NC(=O)c2nccnc2C(=O)O)cc(OC)c1 | inconclusive: 14.1 µM [inhibitor, partial curve] | 
C=CCNC(=S)N/N=C/c1ccc(N(CC)Cc2ccccc2)cc1 | inconclusive: 44.7 µM [inhibitor, single point] | 
Cc1ccc(Cl)cc1Nc1nc(-c2sc(NC(=O)C(C)(C)C)nc2C)cs1 | inconclusive: 28.2 µM [inhibitor, single point] | 
Cn1nnnc1SCC(=O)Nc1nc2c(s1)CCCC2 |  | inactive: 4.4%
COC(=O)N1C(C)=Cc2ccccc2C1CC(C)=O (centres undefined) | inactive | 
CCOC(=O)COn1c(=O)c(=O)n(OC)c2ccccc21 | inconclusive: 22.4 µM [inhibitor, single point] | 
Cc1cccc(NC(=S)NC(=O)CCc2ccccc2)c1C | inconclusive: 0.0251 µM [inhibitor, full curve, poor fit] | 
Cc1cc(OCC(=O)NC(Cc2c[nH]c3ccc(O)cc23)C(=O)O)c2c(C)c(C)c(=O)oc2c1 (centres undefined) |  | inactive: 8.18%
CN1C(CC(=O)Nc2ccc(Cl)cc2Cl)c2ccccc2CC1(C)C (centres undefined) | inconclusive: 3.55 µM [inhibitor, single point] | 
O=c1c(O)c(-c2ccccc2)oc2cc(O)cc(O)c12 | inactive | 
